In the experiment the target is T1, BD-ECT1 (Arabidopsis) (UniProt Q3MK94).
T1 sequence: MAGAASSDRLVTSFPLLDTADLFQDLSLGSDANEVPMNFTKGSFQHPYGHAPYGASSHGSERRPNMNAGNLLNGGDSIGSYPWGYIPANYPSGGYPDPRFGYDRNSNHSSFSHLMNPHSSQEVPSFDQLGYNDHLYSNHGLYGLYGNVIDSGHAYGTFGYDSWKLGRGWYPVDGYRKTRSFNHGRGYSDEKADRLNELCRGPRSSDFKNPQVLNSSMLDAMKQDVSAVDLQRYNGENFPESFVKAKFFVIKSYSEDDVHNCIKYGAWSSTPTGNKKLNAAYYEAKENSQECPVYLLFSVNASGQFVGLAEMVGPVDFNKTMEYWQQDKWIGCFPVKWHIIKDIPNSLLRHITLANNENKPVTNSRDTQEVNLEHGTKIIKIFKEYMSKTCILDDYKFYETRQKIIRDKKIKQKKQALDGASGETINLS
The experiment in a line: two-hybrid.

The values below come from article doi:10.1101/2024.07.24.604550 (bioRxiv, 2024).

These are yes or no findings as the source states them, for the method shown. Some results given as binding are weak or reduced against the parent protein; the word gives no strength. Sequences can lack the tags named with a protein.

B1: MBP-ECT1 (natural protein, Arabidopsis, UniProt Q3MK94 1-428, looked up)
chain: MAGAASSDRLVTSFPLLDTADLFQDLSLGSDANEVPMNFTKGSFQHPYGHAPYGASSHGSERRPNMNAGNLLNGGDSIGSYPWGYIPANYPSGGYPDPRFGYDRNSNHSSFSHLMNPHSSQEVPSFDQLGYNDHLYSNHGLYGLYGNVIDSGHAYGTFGYDSWKLGRGWYPVDGYRKTRSFNHGRGYSDEKADRLNELCRGPRSSDFKNPQVLNSSMLDAMKQDVSAVDLQRYNGENFPESFVKAKFFVIKSYSEDDVHNCIKYGAWSSTPTGNKKLNAAYYEAKENSQECPVYLLFSVNASGQFVGLAEMVGPVDFNKTMEYWQQDKWIGCFPVKWHIIKDIPNSLLRHITLANNENKPVTNSRDTQEVNLEHGTKIIKIFKEYMSKTCILDDYKFYETRQKIIRDKKIKQKKQALDGASGETINLS
Take B1: the binding entry is recorded as “binds”.
